According to the supplement of paper PMC10735217:
Counter-ions that a name gives are not always drawn. The list shows a part of the results. Single values are uncertain here, since repeats match poorly.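 Human kidney-derived cells stably carry a construct in which eight TEAD-binding elements drive luciferase, measured by luminescence in a drug-repurposing library screen. A hit is any compound whose signal exceeds the plate mean by more than five robust Z scores.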

Test system: HEK293A TEAD-LUC reporter
Experiment: TEAD-luciferase reporter activity (YAP activation), robust Z score vs plate; higher = stronger YAP/TEAD activation
Conditions: 24 h

Row | Structure (SMILES) | TEAD-luciferase reporter activity (compound concentration: 200 nM) | TEAD-luciferase reporter activity (compound concentration: 2 uM) | TEAD-luciferase reporter activity (compound concentration: 10 uM)
1 | CN(C)Cc1nnc2n1-c1ccc(Cl)cc1C(c1ccccc1)=NC2 [adinazolam mesylate] | inactive: -0.643 | inactive: -0.991 | inactive: -1.47
2 | C1=CCC(c2cccnc2)NC1 (stereo not given) | inactive: 1.91 | inactive: -0.833 | inactive: -0.754
3 | c1cnc2c([O][Ga]([O]c3cccc4cccnc34)[O]c3cccc4cccnc34)cccc2c1 | inactive: 0.0896 | inactive: -1.61 | inactive: -2.21
4 | C[C@@H]1CC[C@H]2[C@@H](C)C(=O)O[C@@H]3O[C@@]4(C)CC[C@@H]1[C@]32OO4 [Artemisinin] | inactive: -0.677 |  | inactive: 1.57
5 | C[C@@H]1CC[C@H]2[C@@H](C)C(=O)O[C@@H]3O[C@@]4(C)CC[C@@H]1[C@]32OO4 [artemisinin] |  | inactive: -0.00617 | 
6 | Cc1cc(O)ccc1Cl |  | inactive: -0.169 | 
7 | Cc1cc(O)ccc1Cl [4-Chloro-3-methylphenol] | inactive: 0.216 |  | inactive: -1.19
8 | CCOCCN1CCC(OC(=O)CC)(c2ccccc2)CC1 [Prosidol] | inactive: 1.12 | inactive: 0.77 | inactive: -0.0955
9 | COc1ccc2c(c1)CC(CN1CCC3(CC1)C(=O)NCN3c1ccccc1)O2 (stereo not given) | inactive: -0.346 | inactive: -0.703 | inactive: 0.604
10 | Cc1ncccc1OCC1CCCN1 (stereo not given) [Pozanicline hydrochloride] | inactive: -0.179 | inactive: -0.18 | inactive: 0.305
11 | C=CCN1CC[C@]23c4c5ccc(O)c4O[C@H]2[C@@H](OCCOCCOCCOCCOCCOCCOCCOC)CC[C@@]3(O)[C@H]1C5 [Naloxegol (oxalate)] | inactive: -0.652 | inactive: -1.55 | inactive: 1.9
12 | Cc1cc(C)cc(C(=O)OC2CC3CCC(C2)N3C)c1 (stereo not given) [tropanserin] | active: 6.25 | inactive: -1.36 | inactive: -0.373
13 | CC(N)Cc1cccc(O)c1 (stereo not given) [gepefrine] | inactive: -1.19 | inactive: 0.0198 | inactive: -0.63
14 | CO[C@H]1[C@H](O)C[C@H](O[C@@H]2C[C@H](Oc3cc4cc5c(c(O)c4c(O)c3C)C(=O)[C@@H](O[C@H]3C[C@@H](OC4C[C@@H](O[C@H]6C[C@](C)(O)[C@H](OC(C)=O)[C@@H](C)O6)[C@@H](O)[C@@H](C)O4)[C@H](O)[C@@H](C)O3)[C@H]([C@H](OC)C(=O)[C@@H](O)[C@@H](C)O)C5)O[C@H](C)[C@H]2OC(C)=O)O[C@@H]1C (stereo not given in full) | inactive: -2.01 | inactive: -2.22 | inactive: -2.94
15 | CN1C2CCC1CC(NC(=O)c1c[nH]c3ncccc13)C2 (stereo not given) | inactive: -1.42 | inactive: 0.701 | inactive: -0.505
16 | CN1C(=O)CN2CCOC2(c2ccccc2F)c2cc(Cl)ccc21 (stereo not given) | inactive: -1.55 | inactive: -0.254 | inactive: 3.29
17 | CC12CC[C@H](O)CC1=C[C@H](O)[C@@H]1[C@@H]2CCC2(C)[C@@H](O)CC[C@@H]12 (stereo not given in full) | inactive: -1.87 | inactive: -1.29 | inactive: -0.636
18 | CCOP(=S)(Oc1cccnc1)c1ccccc1 (stereo not given) | inactive: 1.01 | inactive: -0.958 | inactive: -1.64

Row | Structure (SMILES) | TEAD-luciferase reporter activity (compound concentration: 200 nM) | TEAD-luciferase reporter activity (compound concentration: 2 uM) | TEAD-luciferase reporter activity (compound concentration: 10 uM)
19 | CC1OC(O[C@H]2CC[C@@]3(C=O)[C@H](CC[C@@H]4[C@@H]3CC[C@]3(C)[C@@H](C5=CC(=O)OC5)CC[C@]43O)C2)C(O)C(O)C1O (stereo not given in full) | inactive: 3.97 | inactive: 4.56 | active: 23.4
20 | COc1cc(C2c3cc4c(cc3C(CCN(C)CCN(C)C)C3COC(=O)C23)OCO4)cc(OC)c1O (stereo not given) | inactive: -0.648 | inactive: -1.42 | inactive: -0.905
21 | CCOC(=O)C(C(=O)OC1CC2CCC(C1)[N+]2(C)C)c1ccccc1 (stereo not given) | inactive: -0.634 | inactive: -1.31 | inactive: 0.683
22 | CCC1(C2=CCCCC2)C(=O)NC(=O)NC1=O | inactive: -0.0998 | inactive: -0.373 | inactive: -1.08
23 | CO[C@]12CC[C@@]3(C[C@@H]1[C@](C)(O)C(C)(C)C)[C@H]1Cc4ccc(O)c5c4[C@@]3(CCN1CC1CC1)[C@H]2O5 [Buprenorphine Hydrochloride] | inactive: -0.191 |  | inactive: -0.766
24 | COc1cccc2c1[C@]13CCN(CC4CC4)[C@H](C2)[C@]1(OC)CCC(=O)C3 [cyprodime] | inactive: -0.0122 | inactive: -0.726 | inactive: 0.856
25 | CCN(CC)CC#CC(C)(C)OC(=O)C(O)(c1ccccc1)C1CCCCC1 (stereo not given) | inactive: 0.297 | inactive: 0.567 | inactive: 0.811
26 | COc1ccc(C2(C#N)CCN(CC(=O)NO)CC2)cc1OC1CCCC1 | inactive: -1.21 | inactive: 0.108 | active: 6.27
27 | CS(=O)CCCCN=C=S (stereo not given) [Sulforaphane] | inactive: -0.672 | active: 5.7 | inactive: -0.203
28 | Cc1ccc(CCc2c(CCN)ccc(O)c2O)cc1O | inactive: 1.91 | inactive: 0.0951 | inactive: -0.214
29 | Cc1noc(C)c1C(=O)N1C2CCC1CN(C(C)C)C2 | inactive: 0.499 |  | inactive: -1.25
30 | CCP(=O)(O)CCCN | inactive: -1.23 | inactive: 0.0259 | inactive: -2.26
31 | Oc1ccc2c(c1)[C@@]13CCCC[C@@]1(O)[C@@H](C2)N(CC1CCC1)CC3 [Butorphanol-(+)-Tartrate (Schedule Iv)] | inactive: 2.74 |  | inactive: -2.42
32 | NC(=O)OCC(O)c1ccccc1 (stereo not given) | inactive: -0.49 | inactive: -0.772 | inactive: -0.0224
33 | CC(C)CC(NC(=O)C(Cc1ccccc1)NC(=O)CNC(=O)[C@H](C)NC(=O)C(N)Cc1ccc(O)cc1)C(=O)N[C@H](CCCNC(=N)N)C(=O)O (stereo not given in full) [Dalargin] | inactive: -1.03 | inactive: 0.208 | inactive: 1.75
34 | O=C(C1CCCN1C(=O)Nc1ccc(Cl)cc1)N1CCC(N2Cc3ccccc3C2=O)CC1 (stereo not given) | active: 5.87 |  | inactive: 0.487
35 | CCS(=O)(=O)NC1CC2(C)OC1(C)C1C(=O)N(c3ccc(C#N)c(C(F)(F)F)c3)C(=O)C12 (stereo not given) | inactive: -1.71 | inactive: 3.13 | inactive: 3.92
